Screen size: about 210,000 compounds; about 5,900 (2.8%) were called active. Inconclusive results (about 5%) are left out. Calls follow the shape of the dose curve; as a rule, active = well fitted activation curve with a large enough effect; inconclusive = small, poorly fitted or top-dose-only effect; inactive = no such curve, though single readings can be large or run the other way. Only a part is listed here, and it is no random draw. Where no call is shown, the source filed none.
Experiment: qHTS Assay for Enhancers of SMN2 Splice Variant Expression; also: nearly all actives have a fitted effect of over 55% in size; as to activity change, positive = activation: % of control where 0% means no effect
Conditions: HEK293 SMN2-luciferase splicing reporter, luminescence, 30-36 h; activity change, positive = activation: at 46.1 µM (top of the series) unless noted
Outline: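 HEK293 cells carry an SMN2 minigene-luciferase reporter in which exon 7 inclusion puts luciferase in frame. Cells were seeded at 2000 cells/well, attached for 10-12 hours, then exposed to compounds for 30-36 hours at 37C before ONE-Glo luminescence.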
Potency is read from the fitted curve at half-maximal effect.

Row | Compound | activity change, positive = activation | Potency
1 | COc1cc(/C=C2\SC(=Nc3ccc(O)cc3)NC2=O)cc(OC)c1O | 32.7% | –
2 | CCN1CCCC1CNS(=O)(=O)c1ccc(C(=O)Nc2ccccc2)cc1 (configuration not stated) | 35.9% | –
3 | CC(C)(C)C1=CC(=Nc2ccccc2N)C=C(C(C)(C)C)C1=O | inactive: 2.41% | –
4 | CCCC(=O)Nc1nc2ccc(C(=O)OCC)cc2s1 | – | active: 17.8 µM
5 | Cc1ccccc1NC(=O)CN1C(=O)S/C(=C\c2ccc(-c3cccc(C(=O)O)c3C)o2)C1=O | – | active: 11.2 µM
6 | Cc1ccc(C(=O)O/N=C/c2c(N3CCOCC3)n(C)c3ccccc23)cc1 | inactive: -47.1% | –
7 | O=C(Nc1cccnc1)c1cccs1 | – | active: 8.91 µM
8 | COc1ccc(OC(C)C(=O)N2CCN(c3ccccn3)CC2)cc1 (configuration not stated) | 36.6% | –
9 | N=C1SCC(=O)N1c1nc(-c2ccccc2)cs1 | – | active: 11.2 µM
10 | C=CCC(NCc1ccco1)c1ccc(OC)cc1OC (configuration not stated) | 32.1% | –
11 | CCOc1ccc(NC(=S)NC(=O)c2c(Cl)c(C)nn2C)c([N+](=O)[O-])c1 | 49% | –
12 | O=C(CCCOc1ccc(Cl)cc1)N1CCCCC1 | 60.5% | –
13 | Fc1ccc(N/N=C(/c2ccccc2)c2ccccn2)cc1 | -35.9% | –
14 | CCC(O)(CC)C(=O)N=Nc1c(O)[nH]c2ccccc12 | 47.2% | –
15 | COc1ccc(C(=O)c2no[n+]([O-])c2C(=O)c2ccc(OC)cc2)cc1 | inactive: -95.1% | –
16 | COc1ccc(Nc2cc(C)nc(-n3nc(C)cc3C)n2)cc1 | -62.3% | –
17 | Cc1ccc(Cn2c(Cc3ccccc3)nc3ccccc32)cc1 | – | inactive
18 | CC1=CC(C)(C)N2C(=O)C3(SCC(=O)N3c3ccc(F)cc3)c3cc(C)cc1c32 (configuration not stated) | 35.3% | –
19 | Cc1ccc(C2CC2c2n[nH]c(=S)n2-c2ccc(Cl)cc2)cc1 (configuration not stated) | 36.1% | –
20 | CCOc1ccccc1C1CC(=O)NC(C)=C1C(=O)OC1CCCCCC1 (configuration not stated) | inactive: -35.8% | –
21 | COc1ccc(-c2c(NC(=O)c3ccco3)n(C)c3ccccc3c2=O)cc1 | 70.2% | –
22 | C=CCn1c(SCC(=O)Nc2sc(C)c(C)c2C(=O)OCC)nnc1-c1sc(N)nc1C | -74.4% | –

5 structures already listed, sorted by molar mass, falling.
Row | Compound | activity change, positive = activation | Potency
18 | CC1=CC(C)(C)N2C(=O)C3(SCC(=O)N3c3ccc(F)cc3)c3cc(C)cc1c32 (configuration not stated) | 35.3% | –
21 | COc1ccc(-c2c(NC(=O)c3ccco3)n(C)c3ccccc3c2=O)cc1 | 70.2% | –
8 | COc1ccc(OC(C)C(=O)N2CCN(c3ccccn3)CC2)cc1 (configuration not stated) | 36.6% | –
17 | Cc1ccc(Cn2c(Cc3ccccc3)nc3ccccc32)cc1 | – | inactive
13 | Fc1ccc(N/N=C(/c2ccccc2)c2ccccn2)cc1 | -35.9% | –

Next records follow.

Row | Compound | activity change, positive = activation | Potency
23 | O=C(COc1ccc2c(c1)OCO2)Nc1ccc2c(c1)oc1ccccc12 | 39.7% | –
24 | Cc1cc(C(=O)Nc2c(C)nn(Cc3ccc(F)cc3)c2C)on1 | -33.9% | –
25 | COC(=O)c1cc2oc3ccccc3c2n1Cc1nc(-c2cccc(Cl)c2)oc1C | 24.7% | –
26 | COCCN1C=C2C(=O)C(C)(OC(=O)c3cccs3)C(=O)C=C2C=C1CCCC(=O)OC (configuration not stated) | 22.7% [at 9.22 µM] | –
27 | Cc1ccc(S(=O)(=O)N(C)C)cc1NC(=S)NNC(=O)C1CC1 | 45.9% | –
28 | C/C(=N\NC(=O)C(C)Oc1ccc([N+](=O)[O-])cc1)c1ccccn1 (configuration not stated) | -82.6% | –
29 | COc1ccc(-c2cc(C(=O)Nc3ccccc3O)c3ccccc3n2)cc1OC | inactive: -40.9% | –
30 | Cc1cc(C)nc(-n2nc(C)cc2Nc2ccccc2)n1 | -77.2% | –
31 | C=CCn1c(SCC(=O)N2CCc3ccccc3C2)nc2ccccc2c1=O | -42.8% | –
32 | O=C(c1ccccc1)N1CCN(c2ncnc3sc4c(c23)CCC4)CC1 | inactive: -96.1% | –
33 | COc1ccc2c(c1)c(C(=O)OCCN(C)C)c(C)n2C | 45.6% | –
34 | COc1ccc(C(=O)Nc2cc(C(C)C)c(O)c(S(=O)(=O)c3ccc(OC)cc3)c2C)cc1 | – | active: 15.8 µM
35 | CCOc1ccc2nc(N3CCC(C(=O)N4CCN(c5ccccn5)CC4)CC3)sc2c1 | inactive: -86.4% | –
36 | COc1ccc(-c2cc(C3CCN(Cc4ccc([N+](=O)[O-])cc4)CC3)[nH]n2)cc1 | -74.9% | –
37 | CCN1CCN(C(=O)CN(c2ccccc2C)S(C)(=O)=O)CC1 | 27.6% | –
38 | CC(=O)C1=C(O)CC(c2ccccc2)CC1=NCCc1c(C)[nH]c2ccc(C)cc12 (configuration not stated) | -23.1% | –
39 | Cc1sc2c(c1C)c(=O)n(CCc1ccccc1)c(=O)n2Cc1ccccc1Cl | 50% | –
40 | CC(C)N=C(NC#N)SCc1ccccc1F | 35.8% | –
41 | CCOC(=O)C1=C(C)NC2=C(C(=O)CCC2)C1c1cccnc1 (configuration not stated) | 54.5% | –
42 | CCOc1cc(S(=O)(=O)Nc2cc(C)cc(C)c2)ccc1Cl | -32.4% | –
43 | CCOc1ccccc1N(CC(=O)Nc1cc(OC)ccc1OC)S(C)(=O)=O | 39.9% | –
44 | COc1ccc2c(Cl)c(C(=O)NCC3CCCO3)sc2c1Cl (configuration not stated) | 15.5% | –

Row | Compound | activity change, positive = activation | Potency
45 | COc1ccccc1C1CC(=O)Nc2cc3c(cc21)OCCO3 (configuration not stated) | -49.9% | –
46 | O=C(CSc1nnc(-c2cccnc2)s1)Nc1ccnc2ccccc12 | inactive: -69.8% | –
47 | COc1cccc(/C=C/C(=O)Nc2ccc3c(c2)OCCO3)c1OC | – | active: 2.82 µM
48 | CC1(C(=O)N(CC(=O)NC2CCCC2)Cc2ccco2)CC(=O)N=C2C=CC=CN21 (configuration not stated) | 17.6% | –
49 | O=C(Nc1ccc2c(c1)OCO2)C(c1ccccc1)N1CCN(C(=O)c2ccco2)CC1 (configuration not stated) | 44% | –
50 | C=CCN(CC=C)S(=O)(=O)c1ccc(NC(=S)NC(=O)/C=C/c2cccc3ccccc23)cc1 | -44.4% | –
51 | CCOC(=O)C1=C(CNCc2ccc(C)cc2)NC(=O)NC1c1ccc(OC)cc1 (configuration not stated) | 34% | –
52 | CNS(=O)(=O)c1cccc(C(=O)OCC(=O)Nc2ccc(-c3nc4ccc(C)cc4s3)cc2)c1 | – | active: 1.12 µM
53 | CC(C)/C=C1\CCCCC1N(C)C(=O)NC(C)C (configuration not stated) | 30.4% | –
54 | O=C(COc1ccccc1Cl)N1CCN(c2ccc(F)cc2)CC1 | 21.2% | –
55 | NS(=O)(=O)c1cccc(NC(=O)Cn2cnc3ccccc3c2=O)c1 | 42.8% | –
56 | Cc1cc(C(=O)COC(=O)c2ccc(O)cc2)c(C)n1CC1COc2ccccc2O1 (configuration not stated) | inactive: -1.93% | –
57 | O=C(CCCc1ccccc1)Nc1cccc(C(=O)O)c1 | – | active: 1.58 µM
58 | CCC(OC(=O)c1nsc(Cl)c1Cl)C(=O)NCc1ccco1 (configuration not stated) | 31.3% | –
59 | CC(C)(C)c1ccc(OCCn2ccccc2=O)cc1 | – | active: 11.2 µM
60 | Cc1ccc(NC(=O)C2(N(CC(C)C)C(=O)Cn3nnnc3N)CCCCC2)cc1 | 52.9% | –
61 | CCOC(=O)c1c(-c2ccc(C)cc2)csc1NC(=O)c1cc(=O)c2cc(Cl)ccc2o1 | 24% | –
62 | CCOC(=O)c1sc(-c2ccc(OC)cc2)cc1N | 45.5% | –
63 | CC1=CC(C)[C@H](/C=N/n2c(=O)[nH]c3c([nH]c4ccc(C)cc43)c2=O)C(C)C1 (some centres not stated) | inactive: -69.1% | –
64 | O=C(Nc1cccc2cccnc12)c1cccc2ccccc12 | inactive: -23% | –
65 | Cc1cccc(NC(=S)NC2CCCCCC2)c1C | 42% | –
66 | CN1CCSc2ccc(C(=O)NCc3ccccc3F)cc21 | 35.5% | –

Row | Compound | activity change, positive = activation | Potency
67 | COc1ccc(-c2cc3nc[nH]c(=O)c3s2)cc1 | – | active: 12.6 µM
68 | COc1ccc(CC(=O)Nc2cccc(-c3ccc4nnc(C)n4n3)c2)cc1 | 61.2% | –
69 | Cc1cc(N2CCN(C)CC2)nc2ccc(NC(=O)c3ccc4c(c3)OCO4)cc12 | 59.1% | –
70 | CCCn1c(SCC(=O)Nc2ccccc2Oc2ccccc2)n[nH]c1=O | inactive: -33.2% | –
71 | CCCc1ccc(-c2csc(NC(=O)Cc3cccs3)n2)cc1 | inactive: -91.3% | –
72 | CCOc1ccc(NC(=O)CSc2nc(C)cc(C)n2)cc1 | -32.9% | –
73 | c1ccc2[nH]c(NCc3ccc4c(c3)OCO4)nc2c1 | 105% | –
74 | Cc1ccc(C(=O)Nc2ccc(S(=O)(=O)N3CCCC3)cc2)s1 | 30.1% | –
75 | O=C(c1ccc(-c2ccc(Cl)cc2Cl)o1)N1CCOCC1 | – | active: 22.4 µM
76 | O=C(/C=C/c1nc2ccccc2s1)N1CCCCCC1 | 185% | –
77 | COc1ccccc1OCC(=O)N/N=C1\CCc2ccccc21 | 31.3% | –
78 | Cn1cccc1C(=O)N1CCC2(CC1)CCN(c1ncccn1)CC2 | inactive: -36.2% | –
79 | O=S(=O)(c1ccc2c(c1)OCCO2)N1CCC(c2nc3ccc(Cl)cc3[nH]2)CC1 | -78% | –
80 | CCOC(=O)N1CCN(Cc2ccccc2F)CC1 | 31.4% | –
81 | O=C(Oc1ccc(N2C(=O)CCC2=O)cc1)c1ccccc1Cl | inactive: 0.44% | –
82 | CC(C)c1cccc(C(C)C)c1NC(=O)COC(=O)C1=COCCO1 | 35.7% | –
83 | COc1ccc(N2CCc3c(C)nc4c(OC)cccc4c32)cc1 | -82.7% | –
84 | O=C(NC(=S)Nc1ccc(N2CCOCC2)cc1)c1ccc2c(c1)OCCO2 | inactive: -61% | –
85 | CC(C)OCC(O)Cn1c(N2CCCC2)nc2c1c(=O)[nH]c(=O)n2C (configuration not stated) | 34% | –
86 | COC(=O)c1ccc(-n2c(C)cc(-c3csc(NC(=O)c4ccc(S(=O)(=O)N(C)C)cc4)n3)c2C)cc1 | inactive: -62.8% | –
87 | CC(C(=O)N1CCc2ccccc21)n1cccc1 (configuration not stated) | 29.6% | –
88 | COc1ccc(-c2nc3ccccc3n2Cc2ccc(Cl)cc2)cc1 | 36.1% | –

Row | Compound | activity change, positive = activation | Potency
89 | COc1cccc(NC(=O)CSc2nnc(Cc3cccs3)n2-c2ccc(C)cc2)c1 | 41.8% | –
90 | Cc1sc2ncn(CC(=O)NCCCC(=O)N3CCN(Cc4ccc5c(c4)OCO5)CC3)c(=O)c2c1C | inactive: -43.7% | –
91 | O=C(NCc1ccccc1)c1cccc(COc2cc(Cl)ccc2Cl)c1 | – | active: 12.6 µM
92 | Cc1ccc2c(c1)C1OCCC1C1N2C(=O)C2C(C(=O)O)C3C=CC21O3 (configuration not stated) | 28.6% | –
93 | O=C(Cc1cccs1)N1CCCC(c2nc3c(nnn3Cc3ccccc3Cl)c(=O)[nH]2)C1 (configuration not stated) | 33.9% | –
94 | Nc1[nH]n2c(=O)cc(-c3ccccc3)nc2c1N=Nc1ccccc1 | inactive: -90.9% | –
95 | COc1ccc(NC(=O)c2cccs2)cc1OC | 32.1% | –
96 | COc1cc2c(OC)cccc2cc1C(=O)O | 31.2% | –
97 | Nc1nc2ccccc2n1/N=C/c1ccc(Br)cc1 | – | active: 35.5 µM
98 | COc1ccccc1Nc1nnc(SCC(=O)NC(=O)Nc2ccc3c(c2)OCCO3)s1 | -61% | –
99 | COc1ccc(NC(=S)N(C)CC2COc3ccccc3O2)cc1 (configuration not stated) | 56.1% | –
100 | Cc1ccc(NC(=O)c2ccc(OC(=O)c3cc4ccccc4o3)cc2)cc1 | – | active: 10 µM
101 | CCOc1ccc(OCc2ccc(C(=O)NCc3cccnc3)o2)cc1 | inactive: -31.6% | –
102 | Cc1cccn2cc(-c3c[nH]c4ccccc34)nc12 | – | active: 12.6 µM
103 | O=C(Nc1ccc(N2CCCC2)c(Cl)c1)c1ccco1 | – | active: 6.31 µM
104 | COc1ccc(Nc2nc(-c3cccs3)cs2)c(OC)c1 | 86.2% | –
105 | O=C1c2ccccc2C(=O)N1CCc1nc(-c2cccnc2)no1 | 37.1% | –
106 | COC(=O)COc1ccc(S(=O)(=O)NCc2ccco2)cc1Cl | 38.8% | –
107 | CCOC(=O)N1CCN(S(=O)(=O)c2cc(OCC(N)=O)c(C)cc2Cl)CC1 | 33.8% | –
